The list shows a part of the results.
Columns and labels:
Test in all cases: log2 fold change, soluble protein after heating vs DMSO (PISA); higher = thermal stabilisation; K562 lysate, 10 uM; active = over 0.2 and 3.5 SD of the protein, either way, in both replicates (recomputed)
lapatinib = compound: CS(=O)(=O)CCNCc1ccc(-c2ccc3ncnc(Nc4ccc(OCc5cccc(F)c5)c(Cl)c4)c3c2)o1 [lapatinib]
How it was run: (§1)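 Pellets of K562 cells were dounce-homogenised in PBS pH 7.4 with 1 mM MgCl2, and the crude extract was held at 1 mg/mL protein for a 30 min treatment with 10 μM compound. Aliquots were heated for 3 min over 48°C-58°C and pooled before NP-40 was added to 0.5% at 4°C. The supernatant from 21,000xg for 90 min was quantified by TMTpro 16plex LC-MS/MS with channel sums equalised. Values are reported from duplicates as log-two fold change in thermal stability relative to solvent controls.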

Protein sequences, listed by entry. Tags and fused reporters are not part of them. Lines headed by an entry give the natural chain unless they say otherwise; changes in a name come on top.
UniProt Q6DHV7: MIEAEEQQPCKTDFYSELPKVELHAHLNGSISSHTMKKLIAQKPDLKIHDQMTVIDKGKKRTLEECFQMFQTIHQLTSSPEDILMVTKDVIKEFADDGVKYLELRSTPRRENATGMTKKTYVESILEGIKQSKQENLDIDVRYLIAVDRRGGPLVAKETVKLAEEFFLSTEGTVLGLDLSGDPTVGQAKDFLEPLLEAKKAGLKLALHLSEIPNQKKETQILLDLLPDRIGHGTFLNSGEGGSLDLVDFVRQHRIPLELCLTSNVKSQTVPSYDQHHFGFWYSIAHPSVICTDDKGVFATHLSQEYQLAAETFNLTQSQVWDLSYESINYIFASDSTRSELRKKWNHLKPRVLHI
UniProt Q9UNA0: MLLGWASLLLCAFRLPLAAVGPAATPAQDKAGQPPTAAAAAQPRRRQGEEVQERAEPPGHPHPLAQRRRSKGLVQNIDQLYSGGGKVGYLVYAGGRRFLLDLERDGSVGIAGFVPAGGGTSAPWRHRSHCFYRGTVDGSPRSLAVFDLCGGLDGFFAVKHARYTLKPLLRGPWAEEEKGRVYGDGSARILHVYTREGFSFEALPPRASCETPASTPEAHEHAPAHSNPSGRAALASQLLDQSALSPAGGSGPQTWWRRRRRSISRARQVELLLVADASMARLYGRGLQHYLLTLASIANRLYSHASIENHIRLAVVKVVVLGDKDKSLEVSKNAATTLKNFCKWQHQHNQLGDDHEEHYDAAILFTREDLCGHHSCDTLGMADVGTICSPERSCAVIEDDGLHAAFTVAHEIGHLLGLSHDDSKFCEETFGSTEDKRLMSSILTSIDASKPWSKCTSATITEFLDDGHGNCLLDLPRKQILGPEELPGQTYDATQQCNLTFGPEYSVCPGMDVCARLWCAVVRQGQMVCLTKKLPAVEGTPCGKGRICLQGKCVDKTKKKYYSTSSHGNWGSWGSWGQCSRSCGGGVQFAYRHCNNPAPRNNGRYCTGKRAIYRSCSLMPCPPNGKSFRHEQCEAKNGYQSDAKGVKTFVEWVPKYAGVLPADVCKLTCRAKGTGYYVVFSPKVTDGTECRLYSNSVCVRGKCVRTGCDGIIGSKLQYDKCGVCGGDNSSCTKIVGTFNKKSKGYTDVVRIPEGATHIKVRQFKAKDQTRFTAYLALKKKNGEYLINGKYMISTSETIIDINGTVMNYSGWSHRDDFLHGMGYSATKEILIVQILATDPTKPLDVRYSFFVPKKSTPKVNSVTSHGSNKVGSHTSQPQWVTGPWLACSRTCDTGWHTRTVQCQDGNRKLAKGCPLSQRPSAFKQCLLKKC
UniProt Q15067: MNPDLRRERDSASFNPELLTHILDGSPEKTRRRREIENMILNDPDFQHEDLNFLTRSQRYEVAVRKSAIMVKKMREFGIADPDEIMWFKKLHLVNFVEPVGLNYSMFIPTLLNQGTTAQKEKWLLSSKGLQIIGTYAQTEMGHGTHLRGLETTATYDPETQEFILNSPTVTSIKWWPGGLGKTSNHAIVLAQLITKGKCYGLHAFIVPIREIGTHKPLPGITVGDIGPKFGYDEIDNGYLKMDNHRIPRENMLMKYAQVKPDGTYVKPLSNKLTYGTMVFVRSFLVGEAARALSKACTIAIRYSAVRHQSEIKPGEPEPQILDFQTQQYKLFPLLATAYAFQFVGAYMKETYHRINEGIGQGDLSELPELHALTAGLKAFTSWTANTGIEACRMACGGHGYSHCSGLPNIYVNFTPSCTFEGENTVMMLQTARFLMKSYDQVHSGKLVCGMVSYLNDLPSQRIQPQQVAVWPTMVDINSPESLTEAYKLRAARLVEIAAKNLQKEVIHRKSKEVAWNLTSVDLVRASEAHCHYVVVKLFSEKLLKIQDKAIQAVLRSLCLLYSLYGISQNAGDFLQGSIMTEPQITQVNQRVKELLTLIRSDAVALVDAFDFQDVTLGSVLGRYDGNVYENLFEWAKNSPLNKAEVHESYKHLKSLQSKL
UniProt P27144: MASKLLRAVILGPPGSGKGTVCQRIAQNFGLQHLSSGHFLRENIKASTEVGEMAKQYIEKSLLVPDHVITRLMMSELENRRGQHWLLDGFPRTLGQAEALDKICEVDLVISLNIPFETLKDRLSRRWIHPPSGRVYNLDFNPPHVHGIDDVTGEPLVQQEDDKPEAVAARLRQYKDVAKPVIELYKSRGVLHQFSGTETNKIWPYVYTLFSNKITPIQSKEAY
UniProt O00170: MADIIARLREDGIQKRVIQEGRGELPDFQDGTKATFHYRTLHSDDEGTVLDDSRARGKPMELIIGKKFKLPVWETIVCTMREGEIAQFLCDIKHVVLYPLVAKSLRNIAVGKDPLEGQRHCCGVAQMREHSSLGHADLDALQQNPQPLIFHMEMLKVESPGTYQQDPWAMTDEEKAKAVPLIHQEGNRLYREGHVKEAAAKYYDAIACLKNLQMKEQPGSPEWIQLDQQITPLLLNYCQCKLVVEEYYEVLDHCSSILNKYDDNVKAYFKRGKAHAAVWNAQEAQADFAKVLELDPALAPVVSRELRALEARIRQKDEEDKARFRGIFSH
UniProt P12814, whole entry, looked up: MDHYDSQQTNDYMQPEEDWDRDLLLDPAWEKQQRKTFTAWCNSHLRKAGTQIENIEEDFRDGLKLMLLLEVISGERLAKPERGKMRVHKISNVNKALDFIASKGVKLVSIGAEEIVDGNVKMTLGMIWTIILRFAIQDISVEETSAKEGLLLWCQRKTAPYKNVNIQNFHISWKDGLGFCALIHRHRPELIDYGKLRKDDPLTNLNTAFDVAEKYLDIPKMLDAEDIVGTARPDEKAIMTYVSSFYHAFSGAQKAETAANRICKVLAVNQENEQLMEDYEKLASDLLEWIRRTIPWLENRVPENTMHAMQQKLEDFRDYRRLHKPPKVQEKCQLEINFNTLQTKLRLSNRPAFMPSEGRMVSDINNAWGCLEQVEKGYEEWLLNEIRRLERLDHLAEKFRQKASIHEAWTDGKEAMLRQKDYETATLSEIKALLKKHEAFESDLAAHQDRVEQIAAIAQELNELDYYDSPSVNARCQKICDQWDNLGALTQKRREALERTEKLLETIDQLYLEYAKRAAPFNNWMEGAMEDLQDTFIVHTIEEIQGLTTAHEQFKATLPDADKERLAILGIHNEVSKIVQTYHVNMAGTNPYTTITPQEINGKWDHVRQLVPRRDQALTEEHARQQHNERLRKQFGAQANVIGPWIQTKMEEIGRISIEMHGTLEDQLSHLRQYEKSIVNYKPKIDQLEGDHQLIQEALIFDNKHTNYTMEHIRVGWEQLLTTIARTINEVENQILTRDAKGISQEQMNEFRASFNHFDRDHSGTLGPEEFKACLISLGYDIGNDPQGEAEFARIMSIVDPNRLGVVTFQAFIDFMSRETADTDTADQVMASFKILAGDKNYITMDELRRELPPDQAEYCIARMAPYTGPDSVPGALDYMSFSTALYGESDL
UniProt P11766: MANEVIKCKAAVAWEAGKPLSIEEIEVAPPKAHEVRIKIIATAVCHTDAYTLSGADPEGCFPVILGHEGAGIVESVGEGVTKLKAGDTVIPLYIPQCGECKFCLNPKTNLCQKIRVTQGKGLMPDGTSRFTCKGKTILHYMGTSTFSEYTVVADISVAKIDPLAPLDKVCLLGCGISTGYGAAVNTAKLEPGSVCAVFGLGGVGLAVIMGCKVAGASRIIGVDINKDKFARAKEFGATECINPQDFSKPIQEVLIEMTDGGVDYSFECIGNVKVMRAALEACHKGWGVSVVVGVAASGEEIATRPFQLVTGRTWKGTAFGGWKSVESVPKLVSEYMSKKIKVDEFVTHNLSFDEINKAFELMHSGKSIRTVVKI
UniProt Q6ULP2: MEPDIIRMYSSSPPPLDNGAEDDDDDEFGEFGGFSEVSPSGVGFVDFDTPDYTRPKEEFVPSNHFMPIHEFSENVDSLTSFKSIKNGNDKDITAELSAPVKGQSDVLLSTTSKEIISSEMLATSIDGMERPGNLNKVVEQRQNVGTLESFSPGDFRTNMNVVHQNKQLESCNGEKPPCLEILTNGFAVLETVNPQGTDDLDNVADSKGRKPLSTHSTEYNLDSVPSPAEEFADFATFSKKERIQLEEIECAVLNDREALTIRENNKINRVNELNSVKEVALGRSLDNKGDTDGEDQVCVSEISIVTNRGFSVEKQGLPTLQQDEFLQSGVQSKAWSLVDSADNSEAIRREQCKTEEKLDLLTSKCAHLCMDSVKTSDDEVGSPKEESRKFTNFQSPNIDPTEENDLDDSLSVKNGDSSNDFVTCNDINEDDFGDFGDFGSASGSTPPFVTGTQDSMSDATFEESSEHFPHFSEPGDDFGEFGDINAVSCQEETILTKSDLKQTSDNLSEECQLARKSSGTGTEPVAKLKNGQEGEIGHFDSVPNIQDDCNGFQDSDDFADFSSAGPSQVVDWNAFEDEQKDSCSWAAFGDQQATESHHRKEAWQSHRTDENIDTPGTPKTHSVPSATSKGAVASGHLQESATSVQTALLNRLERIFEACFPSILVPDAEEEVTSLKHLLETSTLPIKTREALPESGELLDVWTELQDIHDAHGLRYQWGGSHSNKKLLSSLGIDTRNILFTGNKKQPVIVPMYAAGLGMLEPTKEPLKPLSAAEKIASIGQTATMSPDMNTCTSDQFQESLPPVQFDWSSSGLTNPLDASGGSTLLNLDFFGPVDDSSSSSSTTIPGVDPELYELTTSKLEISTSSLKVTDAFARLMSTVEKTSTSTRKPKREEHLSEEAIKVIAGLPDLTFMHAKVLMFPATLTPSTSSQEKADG
UniProt Q96HN2, whole entry, looked up: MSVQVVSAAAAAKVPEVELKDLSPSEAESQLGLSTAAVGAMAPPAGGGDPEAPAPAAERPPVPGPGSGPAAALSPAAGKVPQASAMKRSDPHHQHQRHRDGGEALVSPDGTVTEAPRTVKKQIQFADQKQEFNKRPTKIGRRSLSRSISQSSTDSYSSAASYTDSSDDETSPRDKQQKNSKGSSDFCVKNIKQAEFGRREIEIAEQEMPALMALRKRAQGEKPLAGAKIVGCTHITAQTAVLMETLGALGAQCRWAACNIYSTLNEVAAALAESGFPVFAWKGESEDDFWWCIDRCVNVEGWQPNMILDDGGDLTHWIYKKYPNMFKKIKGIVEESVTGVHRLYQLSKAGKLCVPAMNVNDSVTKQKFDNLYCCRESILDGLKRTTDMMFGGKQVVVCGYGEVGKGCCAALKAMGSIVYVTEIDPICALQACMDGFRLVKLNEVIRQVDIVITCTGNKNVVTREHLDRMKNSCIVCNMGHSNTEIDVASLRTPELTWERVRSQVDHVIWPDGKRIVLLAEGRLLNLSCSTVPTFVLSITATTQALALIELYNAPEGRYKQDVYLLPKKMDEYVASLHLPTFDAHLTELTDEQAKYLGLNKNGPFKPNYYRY
UniProt Q96SZ5, whole entry, looked up: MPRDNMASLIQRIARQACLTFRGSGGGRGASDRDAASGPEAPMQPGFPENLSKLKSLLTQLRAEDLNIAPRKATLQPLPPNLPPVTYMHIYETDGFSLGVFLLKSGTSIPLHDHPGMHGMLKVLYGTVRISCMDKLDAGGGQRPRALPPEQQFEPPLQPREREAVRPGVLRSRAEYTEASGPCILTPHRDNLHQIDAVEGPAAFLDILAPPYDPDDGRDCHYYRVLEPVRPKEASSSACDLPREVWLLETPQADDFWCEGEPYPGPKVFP
UniProt P35612: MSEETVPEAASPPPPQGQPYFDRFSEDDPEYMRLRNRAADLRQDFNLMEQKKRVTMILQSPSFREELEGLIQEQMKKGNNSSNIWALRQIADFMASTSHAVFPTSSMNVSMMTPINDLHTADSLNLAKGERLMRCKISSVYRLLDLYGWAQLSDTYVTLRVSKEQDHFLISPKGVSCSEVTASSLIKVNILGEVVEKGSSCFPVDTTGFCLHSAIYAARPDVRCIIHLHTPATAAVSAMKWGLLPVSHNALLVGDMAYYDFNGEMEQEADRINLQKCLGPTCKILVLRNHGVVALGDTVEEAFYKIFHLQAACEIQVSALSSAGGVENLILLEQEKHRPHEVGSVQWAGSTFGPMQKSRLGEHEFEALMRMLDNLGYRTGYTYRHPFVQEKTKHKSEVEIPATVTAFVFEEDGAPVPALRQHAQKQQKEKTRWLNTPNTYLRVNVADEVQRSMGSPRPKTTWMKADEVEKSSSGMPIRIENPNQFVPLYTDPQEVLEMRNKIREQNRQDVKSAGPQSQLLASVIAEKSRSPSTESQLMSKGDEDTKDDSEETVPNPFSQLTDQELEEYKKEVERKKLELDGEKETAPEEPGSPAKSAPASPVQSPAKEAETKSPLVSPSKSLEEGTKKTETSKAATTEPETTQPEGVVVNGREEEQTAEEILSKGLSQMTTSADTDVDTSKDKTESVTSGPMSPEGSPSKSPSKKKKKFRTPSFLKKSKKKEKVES

pictilisib = compound: CS(=O)(=O)N1CCN(Cc2cc3nc(-c4cccc5[nH]ncc45)nc(N4CCOCC4)c3s2)CC1 [pictilisib]
How it was run: as §1

crizotinib = compound: C[C@@H](Oc1cc(-c2cnn(C3CCNCC3)c2)cnc1N)c1c(Cl)ccc(F)c1Cl [crizotinib]
How it was run: as §1

[1] = compound: C[C@H](C1=CC=C(C=C1)C(=O)NC2=C3C=CNC3=NC=C2)N
How it was run: as §1

duvelisib = compound: C[C@H](Nc1ncnc2nc[nH]c12)c1cc2cccc(Cl)c2c(=O)n1-c1ccccc1 [duvelisib]
How it was run: as §1

gandotinib = compound: Cc1cc(Nc2cc(CN3CCOCC3)c3nc(C)c(Cc4ccc(Cl)cc4F)n3n2)n[nH]1 [gandotinib]
How it was run: as §1

tozasertib = compound: Cc1cc(Nc2cc(N3CCN(C)CC3)nc(Sc3ccc(NC(=O)C4CC4)cc3)n2)n[nH]1 [tozasertib]
How it was run: as §1

doramapimod = compound: Cc1ccc(-n2nc(C(C)(C)C)cc2NC(=O)Nc2ccc(OCCN3CCOCC3)c3ccccc23)cc1 [doramapimod]
How it was run: as §1

bafetinib = compound: Cc1ccc(NC(=O)c2ccc(CN3CC[C@H](N(C)C)C3)c(C(F)(F)F)c2)cc1Nc1nccc(-c2cncnc2)n1 [bafetinib]
How it was run: as §1

[2] = compound: Cc1cccc(CC(=O)N2CCc3c2ccc(-c2cn(C)c4ncnc(N)c24)c3F)n1
How it was run: as §1

nilotinib = compound: Cc1cn(-c2cc(NC(=O)c3ccc(C)c(Nc4nccc(-c5cccnc5)n4)c3)cc(C(F)(F)F)c2)cn1 [nilotinib]
How it was run: as §1

[3] = compound: Cc1nc(Nc2n[nH]c3c2CN(C(=O)N[C@H](CN(C)C)c2ccccc2)C3(C)C)c2sccc2n1
How it was run: as §1

dasatinib = compound: Cc1nc(Nc2ncc(C(=O)Nc3c(C)cccc3Cl)s2)cc(N2CCN(CCO)CC2)n1 [dasatinib]
How it was run: as §1

[4] = compound: Cc1ncc(-c2ccnc(Nc3ccc(S(C)(=O)=O)cc3)n2)n1C(C)C
How it was run: as §1

[5] = compound: Cn1cc(-c2ccc3c(c2)CCN3C(=O)Cc2cccc(C(F)(F)F)c2)c2c(N)ncnc21
How it was run: as §1

quisinostat = compound: Cn1cc(CNCC2CCN(c3ncc(C(=O)NO)cn3)CC2)c2ccccc21 [quisinostat]
How it was run: as §1

tipifarnib = compound: Cn1cncc1[C@@](N)(c1ccc(Cl)cc1)c1ccc2c(c1)c(-c1cccc(Cl)c1)cc(=O)n2C [tipifarnib]
How it was run: as §1

[6] = compound: NC(=O)Nc1cc(-c2cccc(F)c2)sc1C(=O)N[C@H]1CCCNC1
How it was run: as §1

[7] = compound: NC(=O)c1cnc(N[C@@H]2CCCC[C@@H]2N)nc1Nc1cccc(-n2nccn2)c1
How it was run: as §1

[8] = compound: NC1(c2ccc(-c3nc4ccn5c(=O)[nH]nc5c4cc3-c3ccccc3)cc2)CCC1
How it was run: as §1

Measured: log2 fold change

ADAL (UniProt Q6DHV7)
inactive: lapatinib 0.011 | pictilisib -0.029 | crizotinib 0.047 | [1] 0.053 | duvelisib 0.023 | gandotinib -0.039 | tozasertib -0.006 | doramapimod -0.02 | bafetinib 0.024 | [2] -0.039 | nilotinib -0.031 | [3] -0.015 | dasatinib -0.011 | [4] 0.058 | [5] -0.004 | quisinostat 0.026 | tipifarnib 0.002 | [6] 0.002 | [7] 0.024 | [8] 0.013

ADAMTS5 (UniProt Q9UNA0)
inactive: lapatinib -0.102 | pictilisib -0.015 | crizotinib -0.139 | duvelisib -0.004 | gandotinib 0.332 | tozasertib 0.011 | doramapimod 0.04 | bafetinib -0.211 | [2] 0.33 | nilotinib 0.003 | [3] -0.062 | dasatinib -0.01 | [4] -0.011 | [5] 0.014 | quisinostat -0.222 | tipifarnib -0.041 | [6] 0.016 | [7] 0.031 | [8] -0.083
active: [1] -0.843

ACOX1 isoform 2 (UniProt Q15067)
inactive: lapatinib -0.003 | pictilisib -0.003 | crizotinib -0.004 | [1] -0.112 | duvelisib -0.012 | gandotinib 0.167 | tozasertib 0.043 | doramapimod 0.024 | bafetinib -0.01 | [2] 0.054 | nilotinib 0.104 | [3] 0.005 | dasatinib 0.065 | [4] -0.011 | [5] 0.019 | quisinostat 0 | tipifarnib -0.042 | [6] -0.018 | [7] -0.039 | [8] 0

AIMP2 (UniProt Q13155)
inactive: lapatinib -0.006 | pictilisib 0.015 | crizotinib -0.047 | [1] 0.05 | duvelisib -0.018 | gandotinib -0.12 | tozasertib 0.041 | doramapimod 0.029 | bafetinib -0.03 | [2] -0.032 | nilotinib 0.015 | [3] -0.015 | dasatinib -0.048 | [4] -0.002 | [5] -0.007 | quisinostat -0.009 | tipifarnib -0.003 | [6] 0.045 | [7] -0.012 | [8] -0.007

AK4 (UniProt P27144)
inactive: lapatinib -0.003 | pictilisib -0.033 | crizotinib 0.028 | [1] -0.027 | duvelisib 0.014 | gandotinib -0.019 | tozasertib 0.052 | doramapimod 0.03 | bafetinib -0.024 | [2] 0.012 | nilotinib -0.006 | [3] 0.003 | dasatinib -0.04 | [4] 0.042 | [5] 0.04 | quisinostat -0.012 | tipifarnib 0.001 | [6] 0.018 | [7] -0.023 | [8] -0.012

ACTR3 (UniProt P61158)
inactive: lapatinib 0.067 | pictilisib 0.007 | crizotinib 0.032 | [1] 0.004 | duvelisib -0.012 | gandotinib -0.021 | tozasertib -0.005 | doramapimod 0.025 | bafetinib 0.078 | [2] -0.004 | nilotinib 0.056 | [3] 0.051 | dasatinib 0.093 | [4] -0.017 | [5] -0.02 | quisinostat 0.02 | tipifarnib -0.032 | [6] -0.016 | [7] 0.004 | [8] 0

AKAP1 (UniProt Q92667)
inactive: lapatinib 0.002 | pictilisib -0.023 | crizotinib -0.027 | [1] -0.012 | duvelisib 0.148 | gandotinib -0.02 | tozasertib 0.085 | doramapimod 0.02 | bafetinib -0.025 | [2] 0.041 | nilotinib -0.006 | [3] -0.006 | dasatinib -0.066 | [4] 0.006 | [5] 0.118 | quisinostat -0.015 | tipifarnib 0.016 | [6] -0.01 | [7] 0.013 | [8] -0.002

AIP (UniProt O00170)
active: [1] 0.41
inactive: lapatinib -0.004 | pictilisib -0.026 | crizotinib 0.021 | duvelisib -0.031 | gandotinib -0.019 | tozasertib -0.012 | doramapimod -0.022 | bafetinib 0.055 | [2] -0.043 | nilotinib 0.024 | [3] -0.001 | dasatinib 0.018 | [4] 0.028 | [5] 0.008 | quisinostat 0.007 | tipifarnib 0.027 | [6] -0.011 | [7] -0.016 | [8] 0.024

ACTN1 isoform 3 (UniProt P12814)
inactive: lapatinib -0.01 | pictilisib -0.009 | crizotinib 0.014 | [1] 0.026 | duvelisib -0.023 | gandotinib 0.019 | tozasertib -0.01 | doramapimod 0.004 | bafetinib 0.04 | [2] -0.034 | nilotinib 0.019 | [3] -0.006 | dasatinib 0.04 | [4] 0.009 | [5] -0.02 | quisinostat 0.01 | tipifarnib 0.003 | [6] -0.01 | [7] -0.009 | [8] 0.009

ACTR1B (UniProt P42025)
inactive: lapatinib -0.021 | pictilisib 0.038 | crizotinib -0.005 | [1] -0.017 | duvelisib 0.016 | gandotinib 0.005 | tozasertib -0.029 | doramapimod -0.008 | bafetinib -0.006 | [2] -0.039 | nilotinib -0.041 | [3] 0.038 | dasatinib -0.032 | [4] 0.015 | [5] -0.067 | quisinostat 0 | tipifarnib -0.02 | [6] 0.056 | [7] 0.015 | [8] -0.025

ADH5 (UniProt P11766)
inactive: lapatinib -0.04 | pictilisib -0.025 | crizotinib -0.006 | [1] -0.046 | duvelisib 0.127 | gandotinib 0.049 | tozasertib -0.039 | doramapimod -0.01 | bafetinib -0.021 | [2] -0.012 | nilotinib 0.016 | [3] 0.022 | dasatinib 0.006 | [4] 0.02 | [5] -0.007 | quisinostat -0.065 | tipifarnib 0.02 | [6] -0.011 | [7] -0.025 | [8] 0.007

AFTPH isoform 9 (UniProt Q6ULP2)
inactive: lapatinib -0.029 | pictilisib 0 | crizotinib -0.006 | [1] 0.061 | duvelisib -0.017 | gandotinib 0 | tozasertib -0.017 | doramapimod -0.01 | bafetinib -0.029 | [2] 0.022 | nilotinib 0.086 | [3] 0.192 | dasatinib -0.018 | [4] -0.004 | [5] 0.088 | quisinostat 0.019 | tipifarnib -0.027 | [6] 0.029 | [7] 0.084 | [8] -0.016

AHCYL2 (UniProt Q96HN2)
inactive: lapatinib -0.018 | pictilisib 0.008 | crizotinib -0.039 | [1] -0.047 | duvelisib -0.055 | gandotinib 0.034 | tozasertib 0.009 | doramapimod -0.014 | bafetinib -0.02 | [2] 0.046 | nilotinib 0.065 | [3] -0.015 | dasatinib 0.175 | [4] 0.047 | [5] 0.091 | quisinostat -0.076 | tipifarnib 0.028 | [6] -0.024 | [7] -0.019 | [8] -0.011

ACTG1 (UniProt I3L4N8)
inactive: lapatinib -0.072 | pictilisib -0.209 | crizotinib -0.066 | [1] -0.039 | duvelisib 0.13 | gandotinib -0.159 | tozasertib 0.083 | doramapimod -0.065 | bafetinib -0.183 | [2] -0.096 | nilotinib -0.068 | [3] 0.104 | dasatinib 0.055 | [4] -0.045 | [5] -0.171 | quisinostat 0.032 | tipifarnib 0.11 | [6] -0.053 | [7] -0.033 | [8] -0.114

ADO (UniProt Q96SZ5)
inactive: lapatinib -0.022 | pictilisib -0.013 | crizotinib 0.012 | [1] -0.029 | duvelisib -0.027 | gandotinib 0.027 | tozasertib -0.001 | doramapimod -0.038 | bafetinib 0.033 | [2] -0.006 | nilotinib -0.054 | [3] -0.074 | dasatinib 0.047 | [4] 0.002 | [5] -0.003 | quisinostat 0.008 | tipifarnib 0.045 | [6] -0.017 | [7] 0.017 | [8] -0.019

Retrieved one by one from the entries so far, 2 records:
ACTR3 (UniProt P61158)
inactive: lapatinib 0.067 | pictilisib 0.007 | crizotinib 0.032 | [1] 0.004 | duvelisib -0.012 | gandotinib -0.021 | tozasertib -0.005 | doramapimod 0.025 | bafetinib 0.078 | [2] -0.004 | nilotinib 0.056 | [3] 0.051 | dasatinib 0.093 | [4] -0.017 | [5] -0.02 | quisinostat 0.02 | tipifarnib -0.032 | [6] -0.016 | [7] 0.004 | [8] 0

ACTN1 isoform 3 (UniProt P12814)
inactive: lapatinib -0.01 | pictilisib -0.009 | crizotinib 0.014 | [1] 0.026 | duvelisib -0.023 | gandotinib 0.019 | tozasertib -0.01 | doramapimod 0.004 | bafetinib 0.04 | [2] -0.034 | nilotinib 0.019 | [3] -0.006 | dasatinib 0.04 | [4] 0.009 | [5] -0.02 | quisinostat 0.01 | tipifarnib 0.003 | [6] -0.01 | [7] -0.009 | [8] 0.009

(listing goes on)

ADD2 (UniProt P35612)
inactive: lapatinib 0 | pictilisib 0.011 | crizotinib 0.035 | [1] -0.024 | duvelisib 0.031 | gandotinib 0.055 | tozasertib -0.007 | doramapimod -0.02 | bafetinib -0.039 | [2] 0.053 | nilotinib -0.012 | [3] -0.003 | dasatinib 0.007 | [4] 0.001 | [5] 0.004 | quisinostat -0.003 | tipifarnib 0.015 | [6] 0.024 | [7] -0.007 | [8] 0.001
